# Measured values taken from the supplement of paper PMC11438910.
# This is one part of the list. Most of these values are background signal.
# B1: 4-173.1 (protein)
# chain 1: QLQLQESGPGLVKPSETLSLTCAVSGASISSNYWSWIRQAPGKGLEWIGRISGSSGSTDYNPSLKSRVTISTDTSKNQFSLKLNSVTAADTAVYYCARVSYWGHYGDYWGQGVLVTVSS
# chain 2: QPVLTQPSSHSASPGAPARLTCTLSSGFSVGDFWIRWYQQKPGSPPRYLLYYHSDSDKHQGSGVPSRFSGSNDASANAGILHISGLQPEDEADYYCCTWHGNSKTQIFGAGTRLTVL
# Assays:
# Assay in all cases: fluorescence intensity of antibody binding to polysaccharide-coupled beads; higher = stronger binding
# [1] = target: pneumococcal polysaccharide C-Poly-1
# Method: (§1)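 Recombinant rhesus-murine chimeric IgG1 antibodies were tested against antigen-coupled MagPlex beads in a 96-plex Luminex direct immunoassay (dLIA). The beads carried pneumococcal capsular polysaccharides of 93 serotypes plus C-polysaccharides. Antibody was added at 0.1–12,500 ng/mL for 1 h, then PE anti-mouse IgG, and net MFI was read on a Bio-Plex 3D. Only the rhesus variable regions are printed; constant regions are murine IgG1/kappa/lambda, and the signal peptide is MGWSCIILFLVATATGVHS.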
# [2] = target: pneumococcal polysaccharide C-Poly-2
# Method: as §1
# [3] = target: pneumococcal polysaccharide Pn1
# Method: as §1
# [4] = target: pneumococcal polysaccharide Pn10A
# Method: as §1
# [5] = target: pneumococcal polysaccharide Pn10B
# Method: as §1
# [6] = target: pneumococcal polysaccharide Pn10C
# Method: as §1
# [7] = target: pneumococcal polysaccharide Pn10F
# Method: as §1
# [8] = target: pneumococcal polysaccharide Pn11A
# Method: as §1
# [9] = target: pneumococcal polysaccharide Pn11B
# Method: as §1
# [10] = target: pneumococcal polysaccharide Pn11C
# Method: as §1
# [11] = target: pneumococcal polysaccharide Pn11D
# Method: as §1
# [12] = target: pneumococcal polysaccharide Pn11F
# Method: as §1
# [13] = antibody concentration 0.1 ng/mL
# [14] = antibody concentration 0.534724 ng/mL
# [15] = antibody concentration 2.8593 ng/mL
# [16] = antibody concentration 15.2894 ng/mL
# [17] = antibody concentration 81.7561 ng/mL
# [18] = antibody concentration 437.17 ng/mL
# [19] = antibody concentration 2337.65 ng/mL
# [20] = antibody concentration 12500 ng/mL
binder,measurement,setting,value
B1,fluorescence intensity,[1]; [13],25.8 MFI
same,fluorescence intensity,[1]; [14],28 MFI
same,fluorescence intensity,[1]; [15],28 MFI
same,fluorescence intensity,[1]; [16],28 MFI
same,fluorescence intensity,[1]; [17],26.5 MFI
same,fluorescence intensity,[1]; [18],30 MFI
same,fluorescence intensity,[1]; [19],32.5 MFI
same,fluorescence intensity,[1]; [20],68.5 MFI
same,fluorescence intensity,[2]; [13],21.5 MFI
same,fluorescence intensity,[2]; [14],21 MFI
same,fluorescence intensity,[2]; [15],22.5 MFI
same,fluorescence intensity,[2]; [16],21 MFI
same,fluorescence intensity,[2]; [17],22 MFI
same,fluorescence intensity,[2]; [18],24 MFI
same,fluorescence intensity,[2]; [19],28.5 MFI
same,fluorescence intensity,[2]; [20],58.5 MFI
same,fluorescence intensity,[3]; [13],15.5 MFI
same,fluorescence intensity,[3]; [14],14.5 MFI
same,fluorescence intensity,[3]; [15],13.5 MFI
same,fluorescence intensity,[3]; [16],15 MFI
same,fluorescence intensity,[3]; [17],15 MFI
same,fluorescence intensity,[3]; [18],15.5 MFI
same,fluorescence intensity,[3]; [19],18 MFI
same,fluorescence intensity,[3]; [20],23.8 MFI
same,fluorescence intensity,[4]; [13],26.5 MFI
same,fluorescence intensity,[4]; [14],27.2 MFI
same,fluorescence intensity,[4]; [15],26 MFI
same,fluorescence intensity,[4]; [16],26.5 MFI
same,fluorescence intensity,[4]; [17],27 MFI
same,fluorescence intensity,[4]; [18],27 MFI
same,fluorescence intensity,[4]; [19],26.5 MFI
same,fluorescence intensity,[4]; [20],32 MFI
same,fluorescence intensity,[5]; [13],26 MFI
same,fluorescence intensity,[5]; [14],23.5 MFI
same,fluorescence intensity,[5]; [15],21.5 MFI
same,fluorescence intensity,[5]; [16],25 MFI
same,fluorescence intensity,[5]; [17],23.8 MFI
same,fluorescence intensity,[5]; [18],23.2 MFI
same,fluorescence intensity,[5]; [19],25 MFI
same,fluorescence intensity,[5]; [20],28.5 MFI
same,fluorescence intensity,[6]; [13],16.5 MFI
same,fluorescence intensity,[6]; [14],18.5 MFI
same,fluorescence intensity,[6]; [15],19 MFI
same,fluorescence intensity,[6]; [16],16.8 MFI
same,fluorescence intensity,[6]; [17],17 MFI
same,fluorescence intensity,[6]; [18],17 MFI
same,fluorescence intensity,[6]; [19],18.5 MFI
same,fluorescence intensity,[6]; [20],19.8 MFI
same,fluorescence intensity,[7]; [13],20.5 MFI
same,fluorescence intensity,[7]; [14],20 MFI
same,fluorescence intensity,[7]; [15],20.5 MFI
same,fluorescence intensity,[7]; [16],19.8 MFI
same,fluorescence intensity,[7]; [17],20 MFI
same,fluorescence intensity,[7]; [18],21.5 MFI
same,fluorescence intensity,[7]; [19],19.5 MFI
same,fluorescence intensity,[7]; [20],24 MFI
same,fluorescence intensity,[8]; [13],29 MFI
same,fluorescence intensity,[8]; [14],29.5 MFI
same,fluorescence intensity,[8]; [15],29.2 MFI
same,fluorescence intensity,[8]; [16],29 MFI
same,fluorescence intensity,[8]; [17],27.2 MFI
same,fluorescence intensity,[8]; [18],32 MFI
same,fluorescence intensity,[8]; [19],34.5 MFI
same,fluorescence intensity,[8]; [20],42.8 MFI
same,fluorescence intensity,[9]; [13],24 MFI
same,fluorescence intensity,[9]; [14],28 MFI
same,fluorescence intensity,[9]; [15],24 MFI
same,fluorescence intensity,[9]; [16],28.2 MFI
same,fluorescence intensity,[9]; [17],26.5 MFI
same,fluorescence intensity,[9]; [18],28 MFI
same,fluorescence intensity,[9]; [19],27.5 MFI
same,fluorescence intensity,[9]; [20],36 MFI
same,fluorescence intensity,[10]; [13],23 MFI
same,fluorescence intensity,[10]; [14],22.5 MFI
same,fluorescence intensity,[10]; [15],24.8 MFI
same,fluorescence intensity,[10]; [16],23.5 MFI
same,fluorescence intensity,[10]; [17],22 MFI
same,fluorescence intensity,[10]; [18],23.5 MFI
same,fluorescence intensity,[10]; [19],26.5 MFI
same,fluorescence intensity,[10]; [20],59.5 MFI
same,fluorescence intensity,[11]; [13],24.5 MFI
same,fluorescence intensity,[11]; [14],25 MFI
same,fluorescence intensity,[11]; [15],25.2 MFI
same,fluorescence intensity,[11]; [16],25 MFI
same,fluorescence intensity,[11]; [17],23.5 MFI
same,fluorescence intensity,[11]; [18],24 MFI
same,fluorescence intensity,[11]; [19],25 MFI
same,fluorescence intensity,[11]; [20],39.5 MFI
same,fluorescence intensity,[12]; [13],14.8 MFI
same,fluorescence intensity,[12]; [14],14.5 MFI

# 18 neighbouring records already listed, for reference:
binder,measurement,setting,value
B1,fluorescence intensity,[6]; [20],19.8 MFI
same,fluorescence intensity,[7]; [13],20.5 MFI
same,fluorescence intensity,[7]; [14],20 MFI
same,fluorescence intensity,[7]; [15],20.5 MFI
same,fluorescence intensity,[7]; [16],19.8 MFI
same,fluorescence intensity,[7]; [17],20 MFI
same,fluorescence intensity,[7]; [18],21.5 MFI
same,fluorescence intensity,[7]; [19],19.5 MFI
same,fluorescence intensity,[7]; [20],24 MFI
same,fluorescence intensity,[8]; [13],29 MFI
same,fluorescence intensity,[8]; [14],29.5 MFI
same,fluorescence intensity,[8]; [15],29.2 MFI
same,fluorescence intensity,[8]; [16],29 MFI
same,fluorescence intensity,[8]; [17],27.2 MFI
same,fluorescence intensity,[8]; [18],32 MFI
same,fluorescence intensity,[8]; [19],34.5 MFI
same,fluorescence intensity,[8]; [20],42.8 MFI
same,fluorescence intensity,[9]; [13],24 MFI
